Data taken from the supplement of paper PMC8728848.
The list shows a part of the results.

Tests used:
Test in all cases: glycan array binding signal (z-score within array); higher = stronger binding
Settings in all cases: glycan notation: IUPAC condensed, linker removed
[1] = target: Neu5Ac(a2-3)Gal(b1-4)GlcNAc(b1-3)Gal(b1-4)GlcNAc(b1-3)Gal(b1-4)GlcNAc
Method in brief: (§1)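 Arrays were curated from the Consortium for Functional Glycomics database, 3228 in total, and kept only where the protein sequence was available. Binding is expressed as a within-array Z-score. This score was averaged across arrays of the same protein sequence at different concentrations or buffers and across linkers, and negative values can be read as non-binding.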

[2] = target: Neu5Ac(a2-3)Gal(b1-4)GlcNAc(b1-3)Gal(b1-4)GlcNAc(b1-3)Gal(b1-4)GlcNAc(b1-2)Man(a1-3)[Neu5Ac(a2-3)Gal(b1-4)GlcNAc(b1-3)Gal(b1-4)GlcNAc(b1-3)Gal(b1-4)GlcNAc(b1-2)Man(a1-6)]GalNAc
Method in brief: as §1

[3] = target: Neu5Ac(a2-3)Gal(b1-4)GlcNAc(b1-3)Gal(b1-4)GlcNAc(b1-3)GalNAc
Method in brief: as §1

[4] = target: Neu5Ac(a2-3)Gal(b1-4)GlcNAc(b1-3)Gal(b1-4)GlcNAc(b1-3)[Neu5Ac(a2-3)Gal(b1-4)GlcNAc(b1-3)Gal(b1-4)GlcNAc(b1-6)]GalNAc
Method in brief: as §1

[5] = target: Neu5Ac(a2-3)Gal(b1-4)GlcNAc(b1-3)Gal(b1-4)GlcNAc(b1-6)[Gal(b1-3)]GalNAc
Method in brief: as §1

[6] = target: Neu5Ac(a2-3)Gal(b1-4)GlcNAc(b1-3)Gal(b1-4)[Fuc(a1-3)]GlcNAc
Method in brief: as §1

[7] = target: Neu5Ac(a2-3)Gal(b1-4)GlcNAc(b1-3)GalNAc
Method in brief: as §1

[8] = target: Neu5Ac(a2-3)Gal(b1-4)GlcNAc(b1-3)[Neu5Ac(a2-3)Gal(b1-4)GlcNAc(b1-6)]GalNAc
Method in brief: as §1

[9] = target: Neu5Ac(a2-3)Gal(b1-4)GlcNAc(b1-6)GalNAc
Method in brief: as §1

[10] = target: Neu5Ac(a2-3)Gal(b1-4)GlcNAc(b1-6)[Gal(b1-3)]GalNAc
Method in brief: as §1

[11] = target: Neu5Ac(a2-3)Gal(b1-4)GlcNAc(b1-6)[Neu5Ac(a2-3)Gal(b1-3)]GalNAc
Method in brief: as §1

[12] = target: Neu5Ac(a2-3)Gal(b1-4)GlcNAc6S
Method in brief: as §1

[13] = target: Neu5Ac(a2-3)Gal(b1-4)[Fuc(a1-3)]GlcNAc
Method in brief: as §1

[14] = target: Neu5Ac(a2-3)Gal(b1-4)[Fuc(a1-3)]GlcNAc(b1-2)Man
Method in brief: as §1

[15] = target: Neu5Ac(a2-3)Gal(b1-4)[Fuc(a1-3)]GlcNAc(b1-3)Gal
Method in brief: as §1

[16] = target: Neu5Ac(a2-3)Gal(b1-4)[Fuc(a1-3)]GlcNAc(b1-3)Gal(b1-4)GlcNAc
Method in brief: as §1

[17] = target: Neu5Ac(a2-3)Gal(b1-4)[Fuc(a1-3)]GlcNAc(b1-3)Gal(b1-4)[Fuc(a1-3)]GlcNAc(b1-3)Gal(b1-4)[Fuc(a1-3)]GlcNAc
Method in brief: as §1

[18] = target: Neu5Ac(a2-3)Gal(b1-4)[Fuc(a1-3)]GlcNAc(b1-3)GalNAc
Method in brief: as §1

[19] = target: Neu5Ac(a2-3)Gal(b1-4)[Fuc(a1-3)]GlcNAc(b1-6)[Gal(b1-3)]GalNAc
Method in brief: as §1

[20] = target: Neu5Ac(a2-3)Gal(b1-4)[Fuc(a1-3)]GlcNAc(b1-6)[Neu5Ac(a2-3)Gal(b1-3)]GalNAc
Method in brief: as §1

[21] = target: Neu5Ac(a2-3)Gal(b1-4)[Fuc(a1-3)]GlcNAc6S
Method in brief: as §1

[22] = target: Neu5Ac(a2-3)Gal6S(b1-4)GlcNAc
Method in brief: as §1

[23] = target: Neu5Ac(a2-3)Gal6S(b1-4)[Fuc(a1-3)]GlcNAc
Method in brief: as §1

[24] = target: Neu5Ac(a2-3)GalNAc
Method in brief: as §1

[25] = target: Neu5Ac(a2-3)GalNAc(b1-4)GlcNAc
Method in brief: as §1

[26] = target: Neu5Ac(a2-3)[GalNAc(b1-4)]Gal(b1-4)Glc
Method in brief: as §1

[27] = target: Neu5Ac(a2-3)[GalNAc(b1-4)]Gal(b1-4)GlcNAc
Method in brief: as §1

[28] = target: Neu5Ac(a2-3)[GalNAc(b1-4)]Gal(b1-4)GlcNAc(b1-3)GalNAc
Method in brief: as §1

[29] = target: Neu5Ac(a2-3)[Neu5Ac(a2-6)]GalNAc
Method in brief: as §1

[30] = target: Neu5Ac(a2-6)Gal
Method in brief: as §1

[31] = target: Neu5Ac(a2-6)Gal(b1-3)GlcNAc(b1-3)[Gal(b1-4)GlcNAc(b1-6)]Gal(b1-4)Glc
Method in brief: as §1

[32] = target: Neu5Ac(a2-6)Gal(b1-4)Glc
Method in brief: as §1

[33] = target: Neu5Ac(a2-6)Gal(b1-4)GlcNAc
Method in brief: as §1

[34] = target: Neu5Ac(a2-6)Gal(b1-4)GlcNAc(b1-2)Man
Method in brief: as §1

[35] = target: Neu5Ac(a2-6)Gal(b1-4)GlcNAc(b1-2)Man(a1-3)Man(b1-4)GlcNAc(b1-4)GlcNAc
Method in brief: as §1

[36] = target: Neu5Ac(a2-6)Gal(b1-4)GlcNAc(b1-2)Man(a1-3)[Gal(b1-4)GlcNAc(b1-2)Man(a1-6)]Man(b1-4)GlcNAc(b1-4)GlcNAc
Method in brief: as §1

[37] = target: Neu5Ac(a2-6)Gal(b1-4)GlcNAc(b1-2)Man(a1-3)[GlcNAc(b1-2)Man(a1-6)]Man(b1-4)GlcNAc(b1-4)GlcNAc
Method in brief: as §1

[38] = target: Neu5Ac(a2-6)Gal(b1-4)GlcNAc(b1-2)Man(a1-3)[GlcNAc(b1-4)][Neu5Ac(a2-6)Gal(b1-4)GlcNAc(b1-2)Man(a1-6)]Man(b1-4)GlcNAc(b1-4)GlcNAc
Method in brief: as §1

B1: PX14404-bvu-534-26-534 (Bacteroides vulgatus) (protein)
chain: EDPRGKLTPENFFSTQDELNMSIYALYQKVNLSQVYTNMQLPQWQGDDITTNPGSNKQPAAEMDKFAAANNNKGVKDAWNMHYAIVKAANLIIQGASKTPTTQDEINIALGQAKFWRAYAYFTLVRLWGPLPMNLDNVNDDYTKPLSPVEEVYGHIVQDLTEAEAVLPTGYSGSPRFLNGVNVYVTRQAAKSTLAAVYMAMAGWPMNKTEYYAKAAEKAKEVIEGVNRGEYEYKLDKDYKDVYAMSNNYNNETVLGINYSPFVDWAQDSELTSCNQFESLGGWGDAWGEIRFWKEFPDGPRKDATYDPKIRLKDGTLVDWWELKEDGTPVVPEHHPMFSIFSVNWDPASKVNTSAPYDYTKPASQNMCNDHRHRIIRYSEVLLWYAEAKARTGQTDELAFKCLNDVRERAGLEPLTGLSADDLAEAAYKEHGWEVAGYWVALVTRRADQFRMNRLKDTFKERAENTAVEVADGILVKESVEYTNRTWSDNLMYLPYPDMDSQKNPNLVR
glycan array binding signal (z-score) [1]: 0.484 | glycan array binding signal (z-score) [2]: 0.891 | glycan array binding signal (z-score) [3]: -0.217 | glycan array binding signal (z-score) [4]: 0.145 | glycan array binding signal (z-score) [5]: 0.521 | glycan array binding signal (z-score) [6]: 0.55 | glycan array binding signal (z-score) [7]: -0.13 | glycan array binding signal (z-score) [8]: 0.349 | glycan array binding signal (z-score) [9]: 0.028 | glycan array binding signal (z-score) [10]: -0.005 | glycan array binding signal (z-score) [11]: 1.1 | glycan array binding signal (z-score) [12]: 0.686 | glycan array binding signal (z-score) [13]: -1.06 | glycan array binding signal (z-score) [14]: -0.51 | glycan array binding signal (z-score) [15]: -1.09 | glycan array binding signal (z-score) [16]: -0.297 | glycan array binding signal (z-score) [17]: 0.228 | glycan array binding signal (z-score) [18]: 0.921 | glycan array binding signal (z-score) [19]: -0.408 | glycan array binding signal (z-score) [20]: 3.23 | glycan array binding signal (z-score) [21]: -0.216 | glycan array binding signal (z-score) [22]: 0.553 | glycan array binding signal (z-score) [23]: -0.892 | glycan array binding signal (z-score) [24]: 0.608 | glycan array binding signal (z-score) [25]: -0.434 | glycan array binding signal (z-score) [26]: -1.43 | glycan array binding signal (z-score) [27]: -0.805 | glycan array binding signal (z-score) [28]: 1.38 | glycan array binding signal (z-score) [29]: 1.18 | glycan array binding signal (z-score) [30]: 1.3 | glycan array binding signal (z-score) [31]: -0.444 | glycan array binding signal (z-score) [32]: 0.839 | glycan array binding signal (z-score) [33]: 0.634 | glycan array binding signal (z-score) [34]: -0.24 | glycan array binding signal (z-score) [35]: -0.116 | glycan array binding signal (z-score) [36]: -0.017 | glycan array binding signal (z-score) [37]: -0.39 | glycan array binding signal (z-score) [38]: -0.239
